Reference: paper PMC7862700
This is a selection; strong and weak results do not stand in their true shares. At the low end of the ranking, values are background and their order means little.

By UniProt entry, the sequences of proteins in these tests, tags left out. Where a name states a change or a piece, a line headed by the entry shows the natural chain unless it says otherwise.
UniProt Q9Y603: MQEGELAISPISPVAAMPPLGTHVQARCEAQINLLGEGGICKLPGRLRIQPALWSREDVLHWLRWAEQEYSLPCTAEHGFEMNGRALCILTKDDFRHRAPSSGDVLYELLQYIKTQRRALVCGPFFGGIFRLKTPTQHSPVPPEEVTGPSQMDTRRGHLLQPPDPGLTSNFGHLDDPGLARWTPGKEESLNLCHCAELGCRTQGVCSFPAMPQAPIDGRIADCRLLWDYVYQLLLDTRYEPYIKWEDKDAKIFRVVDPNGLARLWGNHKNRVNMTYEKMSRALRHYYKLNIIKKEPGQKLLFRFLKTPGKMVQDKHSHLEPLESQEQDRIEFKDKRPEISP

Columns and labels:
ELF3 = molecular target: T1, ELF3 (UniProt P78545); assay: DAPPL (digital affinity profiling via proximity ligation, sequencing); conditions: 10 mM Tris-HCl pH 7.5, 50 mM NaCl, 1 mM DTT, 4% glycerol, room temperature, 30 min; GST-TFs on glutathione beads, 16-mer random dsDNA library, 0.1% …; high values mean tight binding; double strand, one strand shown; scale: fold enrichment (6-mer frequency, TF over GST control)
T1 sequence: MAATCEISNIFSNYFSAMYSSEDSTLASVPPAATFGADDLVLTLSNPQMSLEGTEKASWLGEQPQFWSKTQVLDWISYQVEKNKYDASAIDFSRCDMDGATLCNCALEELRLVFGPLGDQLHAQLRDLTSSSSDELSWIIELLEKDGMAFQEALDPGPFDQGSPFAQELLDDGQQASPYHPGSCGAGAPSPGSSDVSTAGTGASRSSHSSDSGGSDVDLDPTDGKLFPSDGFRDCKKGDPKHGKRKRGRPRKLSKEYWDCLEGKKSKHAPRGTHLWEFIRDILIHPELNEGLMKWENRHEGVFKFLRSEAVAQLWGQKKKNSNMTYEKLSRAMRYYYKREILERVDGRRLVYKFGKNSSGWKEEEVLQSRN

ETV7 = ETV7 (UniProt Q9Y603); assay: as above; conditions: 10 mM Tris-HCl pH 7.5, 50 mM NaCl, 1 mM DTT, 4% glycerol, room temperature, 30 min; GST-TFs on glutathione beads, 16-mer random dsDNA library, 0.1% …; high values mean tight binding; double strand, one strand shown; scale: fold enrichment (6-mer frequency, TF over GST control)

Row | Sequence | binding signal (ELF3) | binding signal (ETV7)
1 | GTATCT | 1.26 | 1.14
2 | CCGTTT | 1.44 | 1.49
3 | ACTGCC | 1.24 | 1.34
4 | TCGTCA | 0.969 | 0.996
5 | TCGCCC | 1.22 | 
6 | GGTTAC | 1.07 | 0.95
7 | GCAACA | 0.994 | 0.988
8 | AGTCTC | 0.922 | 0.835
9 | ATAACG | 0.916 | 0.907
10 | CTGCTT | 1.28 | 
11 | CGGCAT | 1.02 | 
12 | TTATAA | 1.32 | 1.21
13 | AAAGCC | 1.01 | 0.93
14 | CGACGC | 1.28 | 1.05
15 | TAAGTA | 1.36 | 
16 | TAGATC | 0.998 | 1.06
17 | GATAGC | 1.08 | 
18 | CCTGGC | 0.972 | 0.99
19 | GCATCT | 0.964 | 0.822
20 | GCGCCC | 0.971 | 0.991
21 | ACACTG | 0.911 | 
22 | TGGGCA | 0.848 | 0.915
23 | TGGTTG | 0.916 | 0.92
24 | ATGCAG | 1.05 | 0.97

Row | Sequence | binding signal (ELF3) | binding signal (ETV7)
25 | CGTCCT | 1.31 | 
26 | GCAATC | 0.85 | 0.913
27 | CGGTTA | 1 | 
28 | CACACG | 1.07 | 0.987
29 | CCACAC | 0.999 | 0.934
30 | TCCACT | 1.25 | 1.4
31 | TAACGG | 0.946 | 
32 | TTTCGC | 0.978 | 1.16
33 | CACCAA | 1.1 | 0.975
34 | CCGGCG | 0.924 | 0.9
35 | CTCACC | 1.33 | 1.06
36 | GGCATT | 0.94 | 
37 | TAGAAC | 0.974 | 0.923
38 | GATCCA | 1.15 | 0.969
39 | TCACTG | 1.48 | 1.3
40 | TTGTAG | 1.03 | 
41 | CGTCTG | 0.975 | 1.02
42 | ACTGTA | 0.943 | 0.978
43 | TTTAGA | 0.969 | 1.05
44 | ATGCCG | 0.953 | 0.973
45 | ACGATA | 1.04 | 1.22
46 | TCACGG | 0.981 | 1.04
47 | AGATTA | 0.989 | 0.987
48 | GGTTAT | 0.989 | 1.12

7 consecutive records out of the list so far, quoted:
Row | Sequence | binding signal (ELF3) | binding signal (ETV7)
41 | CGTCTG | 0.975 | 1.02
42 | ACTGTA | 0.943 | 0.978
43 | TTTAGA | 0.969 | 1.05
44 | ATGCCG | 0.953 | 0.973
45 | ACGATA | 1.04 | 1.22
46 | TCACGG | 0.981 | 1.04
47 | AGATTA | 0.989 | 0.987

More entries follow.

Row | Sequence | binding signal (ELF3) | binding signal (ETV7)
49 | GCGGCT | 0.933 | 0.933
50 | ACGGAT | 1.3 | 1.13
51 | CAATGT | 0.909 | 1.09
52 | TTAGAT | 1.05 | 1.03
53 | TAGTGC | 1.03 | 0.993
54 | ATACAT | 1.15 | 1.36
55 | CAGCCC | 1.35 | 0.952
56 | TCGTCC | 1.08 | 1.08
57 | TAGAAA | 0.991 | 1.12
58 | GTCCTG | 1.07 | 1.26
59 | CCATCC | 1.12 | 1.24
60 | GATTTA | 1.02 | 0.948
61 | GTGCCC | 0.94 | 1.01
62 | AGCAAA | 1.21 | 0.982
63 | CGCAAC | 0.848 | 0.89
64 | CAAAGC | 1.03 | 0.983
65 | ACTTGT | 1.16 | 1.2
66 | AGTAAC | 0.991 | 0.967
67 | GGCTAA | 0.999 | 1
68 | CTTATT | 1.51 | 1.43
69 | ACCCAA | 1.26 | 1.14
70 | CTGTGC | 1.08 | 0.98
71 | AGCAAC | 0.989 | 1.1
72 | GTGCGC | 0.791 | 0.978

Row | Sequence | binding signal (ELF3) | binding signal (ETV7)
73 | CGACTG | 0.986 | 0.984
74 | CCTTAA | 1.37 | 1.21
75 | CGCCCA | 0.947 | 0.843
76 | AGTATT | 1.17 | 1.3
77 | GGCTCG | 1 | 0.949
78 | CCAATT | 1.39 | 1.21
79 | CCCGAT | 1.2 | 1.24
80 | AATCAG | 1.14 | 1.12
81 | GCCCCA | 0.992 | 0.934
82 | TGGAAT | 1.21 | 1.27
83 | AGTACC | 0.991 | 0.943
84 | AGATTT | 1.21 | 1.16
85 | GTTACC | 1.06 | 1.02
86 | AGTATA | 0.981 | 0.993
87 | CGAATG | 1.12 | 1.08
88 | GCAATG | 1.17 | 1.14
89 | CCGGTG | 0.871 | 1.04
90 | CGCTCG | 1.35 | 0.939
91 | TATTAG | 0.982 | 1.03
92 | TCCCAT | 1.44 | 1.28
93 | ACCGTT | 0.911 | 1.08
94 | GGTCTG | 0.941 | 0.943
95 | TTCACA | 0.974 | 1.29
96 | TTCTGA | 1.13 | 1.19

Row | Sequence | binding signal (ELF3) | binding signal (ETV7)
97 | CCGCTC | 1.54 | 1.42
98 | AGCGCC | 1.09 | 0.982
99 | AATTAA | 1.24 | 1.2
100 | AGCGTC | 0.932 | 1.06
101 | TCTGGT | 1.34 | 1.35
102 | GAATTG | 1.17 | 1.22
103 | GTTCAC | 1.12 | 1.29
104 | GCGCCG | 0.972 | 0.887
105 | CCATGG | 0.999 | 0.99
106 | AAACAC | 1.33 | 1.34
107 | AAACCG | 1.07 | 1.04
108 | CCTTCT | 1.54 | 1.45
109 | TAGGAT | 1.03 | 0.988
110 | GCTCAC | 1.49 | 1.4
111 | GCGATC | 0.941 | 0.919
112 | GCTAGG | 1.14 | 0.976
113 | CGGCAA | 0.923 | 0.915
114 | ATGCTG | 1.26 | 0.988
115 | AAACTG | 1.01 | 1.13
116 | GGAACT | 1.87 | 1.56
117 | TTGGTC | 0.975 | 1.18
118 | GATAAA | 0.863 | 0.938
119 | TCTGTA | 0.96 | 1.03
120 | CGAACT | 1.02 | 1.15
